{
  "source": "patent US6930093B2",
  "about": "“Use of ribofuranose derivatives against inflammatory bowel diseases” (Valeant Research & Development, priority 2003, dated 2005)",
  "test_system": "DNBS induced distal colitis in Wistar rats",
  "assay": "DNBS (2,4 dinitrobenzenesulfonic acid) induced distal colitis in Wistar rats as a model for inflammatory bowel disease",
  "type": "in vivo, Wistar derived female rats",
  "settings": "ribavirin 100 mg/kg × 7 or sulfasalazine 300 mg/kg × 7 p.o.",
  "method": "Wistar derived female rats were provided by MDS Pharma Services Taiwan Ltd. and housed in APEC^R cages. All animals were maintained in a controlled temperature (22° C.-24° C.) and humidity (60-80%) environment with 12 hours light dark cycles for at least one week in the laboratory prior to use. Free access to standard lab chow (LabDiet, Rodent Diet, PMI Nutrition International, USA) and tap water was granted. All aspects of the work including housing, experimentation and disposal of animals were performed in general accordance with the International Guiding Principles for Biomedical Research Involving Animals (CIOMSI Publication No. ISBN 9290360194, 1985).\n[…] (TCI, Japan), absolute ethanol (Merck, Germany), sodium chloride (Wako, Japan), sulfasalazine (Sigma, USA) and Tween 80 (Wako, Japan).\nGroups of 3 Wistar derived female rats weighing 180±20 grams and fasted for 24 hours were used. Distal colitis was induced by intra-colonic instillation of 2,4-ninitrobenzene sulfonic acid (DNBS; 30 mg in 0.5 mL ethanol 30%), which was followed by injection of air (2 mL) through a cannula to ensure that the solution remained in the colon. […] Two control groups were similarly treated with vehicle alone while challenged with either DNBS (vehicle-control) or 0.9% NaCl solution (blank-control). The animals were sacrificed 24 hours after the final dosing of test compound and each colon was removed and weighed. During the experiment, the presence of diarrhea was recorded daily. Furthermore, when the abdominal cavity was opened, adhesions between the colon and other organs were first noted; presence of colonic ulceration was evaluated after removal and weighing of each colon. The colon-to-body weight (BW) ratio was then calculated for each animal according to the formula: Colon [(g)/BW(g)]×100%. The “Net” increase in the ratio of vehicle-control+DNBS group relative to vehicle-control group was used as a base for comparison with test substance treated groups and expressed as percent decrease. A 30% or more (≧30%) reduction in colon-to-body weight ratio, relative to the vehicle-treated control group, is considered significant.",
  "key": {"[1]": {"settings": "individual animals (N 1-3), DNBS-challenged rats"}},
  "note": "“And” between values parts separate entries of the source, which are not always exact repeats. Identical values can stand only once.",
  "data": [
    {"smiles": "NC(=O)c1ncn([C@@H]2O[C@H](CO)[C@@H](O)[C@H]2O)n1", "note": "[Ribavirin, 1-β-D-ribofuranosyl-1H-1,2,4-triazole-3-carboxamide]", "values": [
      {"measurement": "B.W. (g) Day 1", "setting": "group Avg of 3 rats", "result": 183, "unit": "g"},
      {"measurement": "B.W. (g) Day 1", "setting": "[1]", "result": "180 g (2×) and 190 g"}
    ]},
    {"smiles": "O=C(O)c1cc(/N=N/c2ccc(S(=O)(=O)Nc3ccccn3)cc2)ccc1O", "note": "[Sulfasalazine, sulfasalazine]", "values": [
      {"measurement": "B.W. (g) Day 1", "setting": "group Avg of 3 rats", "result": 183, "unit": "g"},
      {"measurement": "B.W. (g) Day 1", "setting": "[1]", "result": "185 g (2×) and 180 g"}
    ]}
  ]
}
